The target of the experiment is glucose-regulated protein 78 kDa (GRP78) (human (endogenous in HUVECs)) (UniProt P11021). The experiment can be described thus: proximity ligation; Duolink in situ red kit mouse/rabbit on HUVECs fixed with 4% PFA after treatment with recombinant ISM (1 μM) for 3 h; ISM against an endogenous protein of the cells; only the binder purified.

Protein sequences, listed by entry. Tags and fused reporters are not part of them. Residues count along the entry.
UniProt P11021, residues 19-654: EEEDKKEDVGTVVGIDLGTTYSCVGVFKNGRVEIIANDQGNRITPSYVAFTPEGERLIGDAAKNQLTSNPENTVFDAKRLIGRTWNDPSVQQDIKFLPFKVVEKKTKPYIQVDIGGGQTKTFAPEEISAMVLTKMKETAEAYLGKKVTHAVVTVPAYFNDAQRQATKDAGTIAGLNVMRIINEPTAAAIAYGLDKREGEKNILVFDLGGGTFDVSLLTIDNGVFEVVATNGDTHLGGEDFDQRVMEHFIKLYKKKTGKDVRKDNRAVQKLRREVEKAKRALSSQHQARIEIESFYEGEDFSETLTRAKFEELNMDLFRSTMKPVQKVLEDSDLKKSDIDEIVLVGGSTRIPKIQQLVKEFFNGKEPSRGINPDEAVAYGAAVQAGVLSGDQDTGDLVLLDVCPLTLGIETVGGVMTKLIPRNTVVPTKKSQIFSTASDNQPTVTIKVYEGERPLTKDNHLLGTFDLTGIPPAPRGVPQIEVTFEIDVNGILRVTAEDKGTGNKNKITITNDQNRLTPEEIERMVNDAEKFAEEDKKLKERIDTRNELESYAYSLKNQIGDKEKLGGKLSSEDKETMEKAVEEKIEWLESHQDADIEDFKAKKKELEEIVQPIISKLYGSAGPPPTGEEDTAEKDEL

Results are given in words; binding and its absence hold for the method and conditions named. In cells and extracts the contact can be indirect. Some results given as binding are weak or reduced against the parent protein; the word gives no strength.

B1: isthmin (ISM), recombinant (ligand, UniProt A2ATD1 30-454)
chain: SDRQDAAAGNNNLNLESDSTSETSFPLSKEAPEEHQVVHQPFPRQRFPPETGHPSLQRDGPRSFLLDLPNFPDLSKADINGQNPNIQVTIEVVDGPDSEAEKDQHPENKPSWSLPAPDWRAWWQRSLSLARTNSGDQDDKYDSTSDDSNFLSVPRGWDRPAPGHRTFETKEQPEYDSTDGEGDWSLWSVCSVTCGNGNQKRTRSCGYACIATESRTCDRPNCPGIEDTFRTAATEVSLLAGSEEFNATKLFEVDMDSCERWMSCKSEFLKKYMHKVINDLPSCPCSYPTEVAYSTADIFDRIKRKDFRWKDASGPKEKLEIYKPTARYCIRSMLSLESTTLAAQHCCYGDNMQLITRGKGAGTPNLISTEFSAELHYKVDVLPWIICKGDWSRYNEARPPNNGQKCTESPSDEDYIKQFQEAREY
Regarding B1, the binding result is “binds”.

(Values after paper PMC6219483.)
